The amount applied is not stated for every result.
Tested on: rat oligodendrocyte progenitor cells
Experiment: Promotive activity of rat oligodendrocyte progenitor cell differentiation-2 (immunostaining of MBP)
Format: cell-based
Conditions: t-test vs DMSO group
Procedure: The promotive activity of oligodendrocyte progenitor cell (OPC) differentiation of the vitamin D derivatives was evaluated by immunostaining of MBP.
Subsequently, oligodendrocyte progenitor cell separation medium was added to the flask, and the mixture was similarly shaken for about 22 hours (37° C., 200 rpm), and the supernatant was collected to prepare oligodendrocyte progenitor cells.

## C[C@H](CN1CC[C@H](OC(F)F)C1)[C@H]1CC[C@H]2/C(=C/C=C3C[C@@H](O)C[C@H](O)C3)CCC[C@]12C [Compound B051, (1R,3R)-5-(2-((1R,3aS,7aR,E)-1-((S)-1-((S)-3-(difluoromethoxy)pyrrolidin-1-yl)propan-2-yl)-7a-methyloctahydro-4H-inden-4-ylidene)ethylidene)cyclohexane-1,3-diol]
Test 2
  Significant difference: **** (<0.0001)

## C=C1[C@H](O)CC(=C/C=C2\CCC[C@]3(C)[C@@H]([C@H](C)CN4CC[C@H](OCC(F)F)C4)CC[C@@H]23)C[C@H]1O [Compound B055, (1R,3R)-5-(2-((1R,3aS,7aR,E)-1-((S)-1-((S)-3-(2,2-difluoroethoxy)pyrrolidin-1-yl)propan-2-yl)-7a-methyloctahydro-4H-inden-4-ylidene)ethylidene)-2-methylenecyclohexane-1,3-diol]
Test 2
  Significant difference: **** (<0.0001)

## C[C@H](CN1CC[C@H](OCC(F)F)C1)[C@H]1CC[C@H]2/C(=C/C=C3C[C@@H](O)C[C@H](O)C3)CCC[C@]12C [Compound B057, (1R,3R)-5-(2-((1R,3aS,7aR,E)-1-((S)-1-((S)-3-(2,2-difluoroethoxy)pyrrolidin-1-yl)propan-2-yl)-7a-methyloctahydro-4H-inden-4-ylidene)ethylidene)cyclohexane-1,3-diol]
Test 2
  Significant difference: **** (<0.0001)

## C[C@H](CN1CC[C@@H](OCC(F)F)C1)[C@H]1CC[C@H]2/C(=C/C=C3C[C@@H](O)C[C@H](O)C3)CCC[C@]12C [Compound B058, (1R,3R)-5-(2-((1R,3aS,7aR,E)-1-((S)-1-((R)-3-(2,2-difluoroethoxy)pyrrolidin-1-yl)propan-2-yl)-7a-methyloctahydro-4H-inden-4-ylidene)ethylidene)cyclohexane-1,3-diol]
Test 2
  Significant difference: **** (<0.0001)

## C[C@H](CN1CC[C@@H](CCC(F)F)C1)[C@H]1CC[C@H]2/C(=C/C=C3C[C@@H](O)C[C@H](O)C3)CCC[C@]12C [Compound B064, (1R,3R)-5-(2-((1R,3aS,7aR,E)-1-((S)-1-((R)-3-(3,3-difluoropropyl)pyrrolidin-1-yl)propan-2-yl)-7a-methyloctahydro-4H-inden-4-ylidene)ethylidene)cyclohexane-1,3-diol]
Test 2
  Significant difference: **** (<0.0001)

## C=C1[C@H](O)CC(=C/C=C2\CCC[C@]3(C)[C@@H]([C@H](C)CN4CCC(C(C)(F)F)CC4)CC[C@@H]23)C[C@H]1O [Compound C055, (1R,3R)-5-(2-((1R,3aS,7aR,E)-1-((S)-1-(4-(1,1-difluoroethyl)piperidin-1-yl)propan-2-yl)-7a-methyloctahydro-4H-inden-4-ylidene)ethylidene)-2-methylenecyclohexane-1,3-diol]
Test 2
  Significant difference: **** (<0.0001)

## C[C@H](CN1CCOC2(CC2)C1)[C@H]1CC[C@H]2/C(=C/C=C3C[C@@H](O)C[C@H](O)C3)CCC[C@]12C [Compound D019, (1R,3R)-5-(2-((1R,3aS,7aR,E)-1-((S)-1-(4-oxa-7-azaspiro[2.5]octan-7-yl)propan-2-yl)-7a-methyloctahydro-4H-inden-4-ylidene)ethylidene)cyclohexane-1,3-diol]
Test 2
  Significant difference: **** (<0.0001)

## C[C@H](CCN1CCOCC1)[C@H]1CC[C@H]2/C(=C/C=C3C[C@@H](O)C[C@H](O)C3)CCC[C@]12C [Compound D023, (1R,3R)-5-(2-((1R,3aS,7aR,E)-7a-methyl-1-((R)-4-morpholinobutan-2-yl)octahydro-4H-inden-4-ylidene)ethylidene)cyclohexane-1,3-diol]
Test 2
  Significant difference: **** (<0.0001)

## C=C1[C@H](O)CC(=C/C=C2\CCC[C@]3(C)[C@@H]([C@H](C)CCN4CCOCC4)CC[C@@H]23)C[C@H]1O [Compound D024, (1R,3R)-5-(2-((1R,3aS,7aR,E)-7a-methyl-1-((R)-4-morpholinobutan-2-yl)octahydro-4H-inden-4-ylidene)ethylidene)-2-methylenecyclohexane-1,3-diol]
Test 2
  Significant difference: **** (<0.0001)

## C=C1/C(=C\C=C2/CCC[C@]3(C)[C@@H]([C@H](C)CN4CCCC[C@@H]4C)CC[C@@H]23)C[C@@H](O)C[C@@H]1O [Compound F001, (1R,3S,Z)-5-(2-((1R,3aS,7aR,E)-7a-methyl-1-((S)-1-((S)-2-methylpiperidin-1-yl)propan-2-yl)octahydro-4H-inden-4-ylidene)ethylidene)-4-methylenecyclohexane-1,3-diol]
Test 7
  Significant difference: ** (<0.01)

## C=C1/C(=C\C=C2/CCC[C@]3(C)[C@@H]([C@H](C)CN4CCCC[C@H]4C)CC[C@@H]23)C[C@@H](O)C[C@@H]1O [Compound F002, (1R,3S,Z)-5-(2-((1R,3aS,7aR,E)-7a-methyl-1-((S)-1-((R)-2-methylpiperidin-1-yl)propan-2-yl)octahydro-4H-inden-4-ylidene)ethylidene)-4-methylenecyclohexane-1,3-diol]
Test 7
  Significant difference: ** (<0.01)

## C=C1/C(=C\C=C2/CCC[C@]3(C)[C@@H]([C@H](C)CN4CCCCC4(C)C)CC[C@@H]23)C[C@@H](O)C[C@@H]1O [Compound F003, (1R,3S,Z)-5-(2-((1R,3aS,7aR,E)-1-((S)-1-(2,2-dimethylpiperidin-1-yl)propan-2-yl)-7a-methyloctahydro-4H-inden-4-ylidene)ethylidene)-4-methylenecyclohexane-1,3-diol]
Test 7
  Significant difference: ** (<0.01)

## C=C1/C(=C\C=C2/CCC[C@]3(C)[C@@H]([C@H](C)CN4CCOC[C@@H]4C)CC[C@@H]23)C[C@@H](O)C[C@@H]1O [Compound F004, (1R,3S,Z)-5-(2-((1R,3aS,7aR,E)-7a-methyl-1-((S)-1-((S)-3-methylmorpholino)propan-2-yl)octahydro-4H-inden-4-ylidene)ethylidene)-4-methylenecyclohexane-1,3-diol]
Test 3
  Significant difference: **** (<0.0001)

## C=C1/C(=C\C=C2/CCC[C@]3(C)[C@@H]([C@H](C)CN4CCOC[C@H]4C)CC[C@@H]23)C[C@@H](O)C[C@@H]1O [Compound F005, (1R,3S,Z)-5-(2-((1R,3aS,7aR,E)-7a-methyl-1-((S)-1-((R)-3-methylmorpholino)propan-2-yl)octahydro-4H-inden-4-ylidene)ethylidene)-4-methylenecyclohexane-1,3-diol]
Test 3
  Significant difference: **** (<0.0001)

## C=C1/C(=C\C=C2/CCC[C@]3(C)[C@@H]([C@H](C)CN4CCOCC4(C)C)CC[C@@H]23)C[C@@H](O)C[C@@H]1O [Compound F006, (1R,3S,Z)-5-(2-((1R,3aS,7aR,E)-1-((S)-1-(3,3-dimethylmorpholino)propan-2-yl)-7a-methyloctahydro-4H-inden-4-ylidene)ethylidene)-4-methylenecyclohexane-1,3-diol]
Test 4
  Significant difference: **** (<0.0001)

## C=C1/C(=C\C=C2/CCC[C@]3(C)[C@@H]([C@H](C)CN4CCOC[C@@H]4C4CC4)CC[C@@H]23)C[C@@H](O)C[C@@H]1O [Compound F008, (1R,3 S,Z)-5-(2-((1R,3aS,7aR,E)-1-((S)-1-((S)-3-cyclopropylmorpholino)propan-2-yl)-7a-methyloctahydro-4H-inden-4-ylidene)ethylidene)-4-methylenecyclohexane-1,3-diol]
Test 5
  Significant difference: **** (<0.0001)

## C=C1/C(=C\C=C2/CCC[C@]3(C)[C@@H]([C@H](C)CN4CCN(C)C[C@@H]4C)CC[C@@H]23)C[C@@H](O)C[C@@H]1O [Compound F011, (1R,3S,Z)-5-(2-((1R,3aS,7aR,E)-1-((S)-1-((S)-2,4-dimethylpiperazin-1-yl)propan-2-yl)-7a-methyloctahydro-4H-inden-4-ylidene)ethylidene)-4-methylenecyclohexane-1,3-diol]
Test 5
  Significant difference: *** (<0.001)

## C=C1/C(=C\C=C2/CCC[C@]3(C)[C@@H]([C@H](C)CN4CCC[C@@H]4C(C)(C)O)CC[C@@H]23)C[C@@H](O)C[C@@H]1O [Compound F013, (1R,3S,Z)-5-(2-((1R,3aS,7aR,E)-1-((S)-1-((R)-2-(2-hydroxypropan-2-yl)pyrrolidin-1-yl)propan-2-yl)-7a-methyloctahydro-4H-inden-4-ylidene)ethylidene)-4-methylenecyclohexane-1,3-diol]
Test 9
  Significant difference: **** (<0.0001)

## C=C1/C(=C\C=C2/CCC[C@]3(C)[C@@H]([C@H](C)CN4CCC[C@H]4C(C)(C)O)CC[C@@H]23)C[C@@H](O)C[C@@H]1O [Compound F014, (1R,3S,Z)-5-(2-((1R,3aS,7aR,E)-1-((S)-1-((S)-2-(2-hydroxypropan-2-yl)pyrrolidin-1-yl)propan-2-yl)-7a-methyloctahydro-4H-inden-4-ylidene)ethylidene)-4-methylenecyclohexane-1,3-diol]
Test 8
  Significant difference: *** (<0.001)

## C=C1/C(=C\C=C2/CCC[C@]3(C)[C@@H]([C@H](C)CN4CCC[C@@H]4C(C)(C)OC)CC[C@@H]23)C[C@@H](O)C[C@@H]1O [Compound F015, (1R,3S,Z)-5-(2-((1R,3aS,7aR,E)-1-((S)-1-((R)-2-(2-methoxypropan-2-yl)pyrrolidin-1-yl)propan-2-yl)-7a-methyloctahydro-4H-inden-4-ylidene)ethylidene)-4-methylenecyclohexane-1,3-diol]
Test 8
  Significant difference: *** (<0.001)

## C=C1/C(=C\C=C2/CCC[C@]3(C)[C@@H]([C@H](C)CN4CCC[C@H]4C(C)(C)OC)CC[C@@H]23)C[C@@H](O)C[C@@H]1O [Compound F016, (1R,3S,Z)-5-(2-((1R,3aS,7aR,E)-1-((S)-1-((S)-2-(2-methoxypropan-2-yl)pyrrolidin-1-yl)propan-2-yl)-7a-methyloctahydro-4H-inden-4-ylidene)ethylidene)-4-methylenecyclohexane-1,3-diol]
Test 8
  Significant difference: *** (<0.001)

## C[C@H](CN1CCCC[C@@H]1C)[C@H]1CC[C@H]2/C(=C/C=C3C[C@@H](O)C[C@H](O)C3)CCC[C@]12C [Compound G001, (1R,3R)-5-(2-((1R,3aS,7aR,E)-7a-methyl-1-((S)-1-((S)-2-methylpiperidin-1-yl)propan-2-yl)octahydro-4H-inden-4-ylidene)ethylidene)cyclohexane-1,3-diol]
Test 3
  Significant difference: **** (<0.0001)
